Screening data, single-dose tests

The chains behind the UniProt entries cited, without tags or fusion partners. Residues count along the entry.
UniProt Q4DA54, 1-478: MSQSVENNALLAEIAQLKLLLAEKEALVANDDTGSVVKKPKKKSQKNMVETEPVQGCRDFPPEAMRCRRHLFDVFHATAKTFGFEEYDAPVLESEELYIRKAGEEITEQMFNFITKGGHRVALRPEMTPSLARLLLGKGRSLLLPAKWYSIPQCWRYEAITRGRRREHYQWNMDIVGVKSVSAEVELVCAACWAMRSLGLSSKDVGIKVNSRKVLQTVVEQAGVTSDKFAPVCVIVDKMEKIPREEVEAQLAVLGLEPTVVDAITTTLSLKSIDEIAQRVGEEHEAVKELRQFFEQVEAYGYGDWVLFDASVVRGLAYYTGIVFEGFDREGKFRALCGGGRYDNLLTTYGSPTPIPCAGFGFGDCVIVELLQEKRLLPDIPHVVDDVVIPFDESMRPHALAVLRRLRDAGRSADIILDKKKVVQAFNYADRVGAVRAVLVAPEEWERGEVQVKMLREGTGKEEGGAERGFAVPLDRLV
UniProt P9WNZ1, whole entry: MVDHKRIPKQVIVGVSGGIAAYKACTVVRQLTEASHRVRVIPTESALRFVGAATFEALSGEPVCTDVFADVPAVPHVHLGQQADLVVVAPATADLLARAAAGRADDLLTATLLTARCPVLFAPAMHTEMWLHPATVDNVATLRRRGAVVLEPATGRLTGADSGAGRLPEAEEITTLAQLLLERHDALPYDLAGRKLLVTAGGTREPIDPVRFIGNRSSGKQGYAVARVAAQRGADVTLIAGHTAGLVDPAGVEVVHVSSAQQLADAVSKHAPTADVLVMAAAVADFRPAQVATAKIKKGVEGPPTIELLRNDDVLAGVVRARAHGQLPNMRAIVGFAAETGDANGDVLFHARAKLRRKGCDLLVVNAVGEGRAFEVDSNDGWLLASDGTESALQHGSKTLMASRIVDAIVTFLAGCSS

The values are deposited in ChEMBL (CHEMBL3988442, “University of Dundee, Small-Polar-MMV Screening Library” (2021)).

Toxoplasma: 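Assay of Toxoplasma gondii numbers, read through their beta-galactosidase reporter with a colour substrate. Compounds at 10 µM. The record gives no direction; the compounds picked for IC50 retests had high values, so higher reads as fewer parasites. Of about 67,000 compounds tested this way, about 260 (0.38%) reached 50% or more in at least one test.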
TcHisRS: 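Enzyme assay of histidyl-tRNA synthetase; the read-out is not stated. Target: Histidine-tRNA ligase, Trypanosoma cruzi CL Brener (UniProt Q4DA54). Tested at 30 µM. The record gives no direction; compounds that gave an IC50 in retests scored well above the rest, so higher reads as stronger inhibition. About 69,000 compounds were tested under these conditions; 0.045% (about 31) showed 50% or more at least once.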
CoaBC: 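Enzyme assay of CoaBC with a phosphate dye (Biomol Green) read at 650 nm. Target: Coenzyme A biosynthesis protein CoaBC, Mycobacterium tuberculosis (UniProt P9WNZ1). Compounds at 30 µM. Direction is inferred from only a few compounds that gave an IC50; most scored high, so higher reads as stronger inhibition. Most strong results did not repeat in a second test. Of about 67,000 compounds tested this way, about 40 (0.06%) reached 50% or more in at least one test.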
Leishmania in macrophages: 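Cell assay of Leishmania donovani living inside macrophages; the read-out is not stated. Tested at 30 µM. Higher reads as stronger inhibition (inferred: compounds with an IC50 in retests scored well above the rest). Of about 69,000 compounds tested this way, about 1,000 (1.5%) reached 50% or more in at least one test.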

Results are given as percent effect.
The record does not define 0% and 100%; most values in the screen are far below 50% and negative numbers occur (in some assays of this library far below -100).
This is an unselected part of the compounds tested.
Two or more numbers in one place are separate tests of the same structure; such repeats can differ widely.
A dash means the value is not listed here; it may have been measured.

| # | structure | Toxoplasma | TcHisRS | CoaBC | Leishmania in macrophages |
|---|---|---|---|---|---|
| 1 | `C1CN(c2nc(C3CC3)no2)CCN(C2CCOCC2)C1` | -0.5128% | 9.948% | -39.19% | 2.878% |
| 2 | `CCCS(=O)(=O)N1CC[C@H]2OCC[C@@]2(c2nnc(C)o2)C1` | - | -4.598% | 13.24% | - |
| 3 | `CC(C)c1cc(C(=O)N2CCC3(CC2)c2ccccc2[C@@H](N)[C@@H]3O)cs1` | 4.153% | 0.8333% | 10.74% | 6.034% |
| 4 | `Cc1noc(CS(=O)(=O)c2cc(F)ccc2F)n1` | 2.949% | 10.71% | -1.843% | 14.89% |
| 5 | `[H][C@@]12CNC(=O)N1CCN(C(=O)c1ccc3c(c1)OCO3)C2` | 5.225% | - | - | 21.55% |
| 6 | `CCc1ccccc1NCc1nc2[nH]c(C)c(C)c(=O)n2n1` | 8.895% | -3.96% | -1.09% | 20.56% |
| 7 | `O=C(O)CCc1nc2nccc(-c3ccc(F)cc3)n2n1` | -4.751% | 4.624% | -2.331% | 11.56% |
| 8 | `O=C1CC2(CCN(Cc3ccoc3)CC2)CN1Cc1cc(F)cc(F)c1` | 1.464% | 5.528% | 3.49% | -21.26% |
| 9 | `CSCC(C)(O)CNC(=O)c1cccc(Cl)c1Cl` (stereo unspecified) | 4.794% | 4.233% | 10.06% | -22.48% |
| 10 | `CC1(C)CC(N(Cc2ccccc2)Cc2cccnc2)CC(C)(C)N1.O=C(O)CC(O)(CC(=O)O)C(=O)O` | 29.28% | - | - | 34.9% |
| 11 | `Cn1cc(CN2CC[C@@H]3[C@@H](CCC(=O)N3CCC3=CCCCC3)C2)cn1` | - | 0% | 2.796% | - |
| 12 | `O=C(Cc1ccccc1F)NCCN1CCOCC1` | 7.778% | -0.5618% | 4.225% | 6.182% |
| 13 | `CCn1ncc(CN2CCc3nc(-c4cccnc4)nc(O)c3C2)c1C` | 8.464% | 1.064% | 5.147% | 12.1% |
| 14 | `CC(=O)N1CCC(N2CCOC[C@H]2c2nc(C(C)(C)C)c[nH]2)CC1` | 24.01% | 7.609% | 4.194% | 7.277% |
| 15 | `Cc1cnc(C(=O)N2C[C@H]3CN(Cc4nccs4)C[C@H]3C2)cn1` | - | 9.045% | 5.331% | - |
| 16 | `Fc1ccc(-n2cccn2)c(CN2CCCCC2CCn2ccnc2)c1` (stereo unspecified) | 9.474% | 6.557% | 1.711% | 2.339% |
| 17 | `COCCCN1Cc2cccc(NC(=O)c3ccccc3C)c2C1` | -3.605% | 10% | 6.198% | -0.887% |
| 18 | `CC(C)(C)c1nc(CNC2CCCN(c3cccnn3)C2)no1` (stereo unspecified) | 0.5461% | 0.5952% | -0.3654% | -21.84% |
| 19 | `CCC(C)NC(=O)CS(=O)(=O)Cc1cc(Cl)c2c(c1)OCCCO2` (stereo unspecified) | -7.459% | 1.714% | -0.7874% | 10.36% |
| 20 | `CCn1ccnc1CN1CCN(CCOc2ccccc2C#N)CC1` | -37.46% | 6.358% | 1.956% | 35.03% |
| 21 | `COc1ccc(CN(C(=O)C2CCCS2)c2ccncc2)cc1` (stereo unspecified) | 2.075% | 1.786% | 0.609% | -1.322% |
| 22 | `CC(C)N(CCO)C(=O)C1CCC(=O)N(Cc2ccc(Cl)cc2)C1` (stereo unspecified) | 18.18% | 1.734% | -4.132% | 9.221% |
| 23 | `[H][C@@]12CCCO[C@]1([H])[C@H](NS(C)(=O)=O)CN(Cc1ccoc1)C2` | 4.845% | - | - | 14.94% |
| 24 | `Cc1nc(CN2CCC3(CC2)C(=O)N(C)CCN3C)cs1` | - | 7.263% | 1.333% | - |
| 25 | `CC(C)c1cc(NCc2csc(N(C)C)n2)nc(N)n1` | 13.83% | 1.235% | 1.84% | 41.43% |
| 26 | `CC(C)(C)c1cn(C[C@H]2CC3CCN2C[C@@H]3C(=O)N2CCOCC2)nn1` (stereo partly specified) | -7.299% | 6.522% | 0.6623% | -15.57% |
| 27 | `CCn1c(C)nc2cc(NC(=O)CC3CCCCO3)ccc21` (stereo unspecified) | -4.112% | 0.7576% | -5.256% | 17.98% |
| 28 | `O=C1NCC2(CCCN(C(=O)c3ccc4c(c3)CCCO4)CC2)O1` (stereo unspecified) | 3.525% | 7.303% | -11.07% | 5.988% |
| 29 | `CN(C)CCN1CCC2(CC1)CN(Cc1cccnc1)C(=O)CO2.O=C(O)C(F)(F)F.O=C(O)C(F)(F)F.O=C(O)C(F)(F)F` | -8.52% | - | - | 20.65% |
| 30 | `O=C(O)C(F)(F)F.O=C(O)C(F)(F)F.[H][C@@]12CCCO[C@]1([H])[C@H](N1CCOCC1)CN(C(=O)c1ccc(C)nc1)C2` | 23.12% | - | - | 34.7% and 20.02% |
| 31 | `COc1ccccc1CNC(=O)C[S+]([O-])Cc1cc(C)on1` (stereo unspecified) | 3.28% | 3.448% | 2.968% | 14.74% |
| 32 | `Cc1ccc2c(c1)C(NCc1ncnn1C)CC2` (stereo unspecified) | -23.34% | -0.9804% | 1.22% | -4.385% |
| 33 | `Cc1ccn(Cc2nc(CC(C)C)no2)c(=O)c1` | -1.784% | -0.4926% | 6.452% | -9.203% |
| 34 | `CCn1c(C)nnc1SCCNC(=O)c1cnc(N(C)C)nc1C` | 4.689% | 13.64% | 0.6046% | 1.455% |
| 35 | `N#CCCN(CC1CC1)S(=O)(=O)c1cccc(Cl)c1` | 2.483% | 5.882% | -3.509% | -18.66% |
| 36 | `O=S(=O)(Nc1cnc(N2CCCC2)nc1)c1ccc(F)cc1F` | -6.197% | 7.778% | 3.782% | 23.99% |
| 37 | `O=C1CC(c2ccccc2C(F)(F)F)c2sc(N3CCOCC3)nc2N1` (stereo unspecified) | -7.974% | 33.54% | 3.418% | -9.221% |
| 38 | `CN1C(=O)CCC12CCN(Cc1ccco1)CC2` | -14.68% | 2.913% | 2.445% | -8.851% |
| 39 | `Cc1ccccc1NC(=O)N1CCN(C(=O)C2CC2)[C@@H]2CS(=O)(=O)C[C@@H]21` | - | 1.288% | -5.861% | - |
| 40 | `[H][C@@]12CCC(=O)N(CCc3c[nH]cn3)[C@]1([H])CCN(Cc1cc(C)c(C)o1)C2` | 15.89% | - | - | 21.24% |
| 41 | `Cc1cccc(N2CCc3ncc(CNc4ccccn4)n3CC2)n1.O=C(O)C(F)(F)F.O=C(O)C(F)(F)F` | 24.58% | - | - | 2.563% |
| 42 | `c1ccc2oc(CCCN3CCOC(Cn4cncn4)C3)nc2c1` (stereo unspecified) | 1.817% | -3.207% | 1.044% | 0.06563% |
| 43 | `CCNC(=O)CNCc1c(C(C)C)nn(C)c1N1CCOCC1` | -1.017% | 7.331% | 3.158% | -22.88% |
| 44 | `CN(Cc1ccco1)C(=O)c1ccc(=O)n(C)c1` | -13.75% | 10.98% | 0.4963% | 9.496% |
| 45 | `CCc1c(C)[nH]c(C2(N)CCCC2)nc1=O.Cl` | 5.981% | - | - | 9.424% |
| 46 | `CN1CCCN(C(=O)NCc2cc(Br)cs2)CC1` | 3.696% | 6.706% | 7.597% | 39.27% |
| 47 | `O=S(=O)(C1CC1)N1Cc2nccn2CC(Cn2cncn2)C1` (stereo unspecified) | 4.697% | 7.778% | 1.951% | 13.03% |
| 48 | `CC(C)c1cc(NC(=O)CN2CCCC2c2noc(C(C)C)n2)on1` (stereo unspecified) | 2.552% | 1.13% | 3.133% | 17.32% |
| 49 | `Cc1nc(Nc2ncccn2)cc(C2CCCN2CC(C)C)n1` (stereo unspecified) | 1.276% | 1.639% | 9.067% | 2.217% |
| 50 | `CN(C)CCn1c(=O)oc2ccc(NC(=O)c3cc(Cl)c[nH]3)cc21` | 19.38% | 3.734% | -12.05% | 15.44% |
| 51 | `CC(C)N(Cc1nccn1C)C(=O)c1cc(Cl)c[nH]c1=O` | -2.74% | 7.895% | - | -8.059% |
| 52 | `CC1(C(=O)NCCCOc2ccccc2F)CC(=O)N2C=CC=CC2=N1` (stereo unspecified) | 10.97% | 7.143% | 12.1% | 15.1% |
| 53 | `CCOCC(=O)N1CCc2nc(C)nc(NC(C)C)c2CC1` | -22.32% | 1.058% | -2.222% | 24.95% |
| 54 | `CSc1ncc(C(=O)NCCn2nccc2C)cn1` | 1.274% | 4.545% | -9.461% | 25.2% |
| 55 | `CSc1ccc(C(=O)N2CCOCC2c2c(C)n[nH]c2C)o1` (stereo unspecified) | -8.216% | 2.053% | 0.7895% | -6.563% |
| 56 | `CCN(CC)c1ncc(CNC2CCc3nc(C(C)C)nn3C2)s1` (stereo unspecified) | -0.918% | 0.5525% | 3.571% | 16.85% |
| 57 | `O=C(O)C(F)(F)F.O=C(O)C(F)(F)F.c1ccc(CN2CCCC3(CCN(CC4CCCO4)CC3)C2)nc1` (stereo unspecified) | -15.01% | - | - | 37.44% |
| 58 | `CC(C)NC(=O)N1CCOC2(CNC2)C1` | -2.744% | 9.709% | -0.2545% | 10.24% |
| 59 | `CC(C#N)CSc1ccccc1NCC(=O)NC(=O)NC(C)(C)C` (stereo unspecified) | -2.276% | -8.867% | 1.603% | 27.82% |
| 60 | `Cn1cc2c(n1)C(COCC1CC1)CN(Cc1ccccn1)C2` (stereo unspecified) | 1.13% | 4.972% | 8.74% | 25.23% |
| 61 | `Cn1nnnc1SCC1Cc2ccccc2O1` (stereo unspecified) | 9.879% | -1.22% | -5.063% | 15.54% and -0.9626% |
| 62 | `Cn1cc(CN2CCc3ncnc(N4CCOCC4)c3CC2)cn1` | - | 8.602% | 1.48% | - |
| 63 | `CC(C)NC(=O)O[C@H]1COCCN(c2nc3ccccc3s2)C1` | -4.041% | 5.941% | 9.255% | 31.59% |
| 64 | `COc1ccc2c(c1)C(NCCc1ncc(C)s1)CCCO2` (stereo unspecified) | 1.747% | 1.19% | 1.961% | 6.876% |
| 65 | `Cc1cc(C[C@@H]2COC[C@H]2NCc2ccc(C(F)(F)F)cc2)on1` | - | 2.247% | 2.602% | - |
| 66 | `Cn1ccnc1CCNS(=O)(=O)c1cccc(Br)c1` | -7.217% | 1.087% | -3.427% | -24.72% |
| 67 | `O=C(O)c1cnc(N2CCC(O)CC2)nc1COc1ccc(F)cc1` | 22% | 7.772% | 10.42% | 33.46% |
| 68 | `COCc1noc(Cn2ncn3cccc3c2=O)n1` | -1.035% | 0% | 6.024% | -34.29% |

5 of the entries, repeated:

structure	Toxoplasma	TcHisRS	CoaBC	Leishmania in macrophages
Cc1noc(CS(=O)(=O)c2cc(F)ccc2F)n1	2.949%	10.71%	-1.843%	14.89%
CCc1ccccc1NCc1nc2[nH]c(C)c(C)c(=O)n2n1	8.895%	-3.96%	-1.09%	20.56%
CC(C#N)CSc1ccccc1NCC(=O)NC(=O)NC(C)(C)C (stereo unspecified)	-2.276%	-8.867%	1.603%	27.82%
Cc1ccc2c(c1)C(NCc1ncnn1C)CC2 (stereo unspecified)	-23.34%	-0.9804%	1.22%	-4.385%
CCN(CC)c1ncc(CNC2CCc3nc(C(C)C)nn3C2)s1 (stereo unspecified)	-0.918%	0.5525%	3.571%	16.85%